Data reported in patent publication EP1270587A1, “Transporter proteins for oxoderivatives of nitrogen-containing heterocyclic compounds and coding nucleic acids” (priority 2001, dated 2003).
Some results were stated once for a whole list of compounds, not compound by compound.

system: UPS1-N-Heterozyklentransporter aus Arabidopsis thaliana, SEQ ID NO: 8, in Hefe exprimiert; assay: Competition study: uptake of 14C-allantoin by yeast strain GEM42::pFL61-UPS1 in the presence of an unlabelled N-heterocycle; format: cell-based; details: 14C-Allantoin 0.2 mM, competitor 2 mM, result in words only, per cent values only in Fig. 3

| Structure (SMILES) | Allantoinaufnahme in Gegenwart eines zehnfachen Überschusses eines anderen N-haltigen Heterozyklus |
| --- | --- |
| Nc1cc[nH]c(=O)n1 [Cytosin] | ebenfalls von den Hefezellen aufgenommen |
| O=c1[nH]c(=O)c2[nH]c(=O)[nH]c2[nH]1 [Harnsäure] | ebenfalls von den Hefezellen aufgenommen |
| O=C1CNC(=O)N1 [Hydantoin] | ebenfalls von den Hefezellen aufgenommen |
| O=c1[nH]c(=O)c2c[nH]nc2[nH]1 [Oxypurinol] | ebenfalls von den Hefezellen aufgenommen |
| O=c1cc[nH]c(=O)[nH]1 [Uracil] | ebenfalls von den Hefezellen aufgenommen |
